Data from PubChem BioAssay AID1487 (National Center for Advancing Translational Sciences (NCATS), 2009).
This is one part of the list. The main result of the screen is listed elsewhere. These columns were measured beside it and carry no call. Most of these compounds were active or inconclusive in the main read-out, so they are no random draw. Potencies come from curve fits of mixed quality, noted in brackets.

Test: qHTS Assay for Modulators of Lamin A Splicing
Settings: HeLa LMNA splicing GFP/RFP minigene ratio, 48 h
Method in brief: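 S3 HeLa cells stably expressing lamin A-EGFP splicing minigene plus DsRed2, 600 cells/well, 48 h compound exposure at 37C. Laser-scanning cytometry; analysed as GFP (500-530 nm)/RFP (575-640 nm) total intensity ratio; 0.5% DMSO vehicle.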

[1] = measured here: GFP splicing reporter channel
[2] = measured here: RFP viability control channel

Structure (SMILES): O=[N+]([O-])c1ccc(Sc2n[nH]c(-c3ccccc3)n2)nc1
- AC50 [1]: 7.08 µM [rising, full curve, poor fit]
- AC50 [2]: 10 µM [rising, partial curve]

Structure (SMILES): CC(C)(C)OC(=O)C(C(=O)OC(C)(C)C)c1ccc(Cl)nn1
- AC50 [2]: 0.794 µM [falling, full curve, poor fit]

Structure (SMILES): N#CC1(c2ccc(NC(=O)c3ccccc3F)cc2)CCCC1
- AC50 [2]: 31.6 µM [rising, single point]

Structure (SMILES): Cc1cc(=O)oc2cc(OCC(O)CN3CCN(c4ccc(F)cc4)CC3)ccc12 (configuration not stated)
- AC50 [2]: 12.6 µM [rising, single point]

Structure (SMILES): COc1ccc(CNc2ccnc(-c3cccc(NS(C)(=O)=O)c3)n2)c(OC)c1
- AC50 [1]: 12.6 µM [falling, partial curve]

Structure (SMILES): COC(=O)C1=C(C)NC(C)=C(C(=O)OCCN(C)Cc2ccccc2)[C@H]1c1cccc([N+](=O)[O-])c1
- AC50 [1]: 7.08 µM [falling, partial curve]
- AC50 [2]: 3.16 µM [falling, partial curve]

Structure (SMILES): COc1ccc2nc(NC(=O)C3CCCN3S(=O)(=O)c3ccc(C)cc3)sc2c1 (configuration not stated)
- AC50 [2]: 15.8 µM [rising, single point]

Structure (SMILES): O=C(O)/C=C\C(=O)Nc1ccc(OC(F)F)cc1
- AC50 [1]: 0.0178 µM [rising, full curve, poor fit]

Structure (SMILES): COc1ccc([N+](=O)[O-])cc1NC(=O)Nc1ccccc1
- AC50 [1]: 14.1 µM [rising, partial curve]
- AC50 [2]: 15.8 µM [rising, partial curve]

Structure (SMILES): CN(Cc1ccccc1)C(=O)c1cc(-c2ccc(Br)cc2)on1
- AC50 [1]: 12.6 µM [rising, single point]
- AC50 [2]: 22.4 µM [rising, single point]

Structure (SMILES): Cc1cccc(OCC(O)CN2CCN(CCN3C(=O)c4cccc5cccc(c45)C3=O)CC2)c1C (configuration not stated)
- AC50 [1]: 22.4 µM [falling, single point]
- AC50 [2]: 3.55 µM [falling, partial curve]

Structure (SMILES): CCOc1ccc(S(=O)(=O)Nc2ccc(O)c(Sc3ncn[nH]3)c2)cc1
- AC50 [2]: 14.1 µM [rising, partial curve]

Structure (SMILES): CNC(=O)c1nnsc1S(=O)(=O)c1ccc(Cl)cc1
- AC50 [2]: 1.26 µM [falling, single point]

Structure (SMILES): CN(C)S(=O)(=O)c1cccc(NC(=O)c2cc3ccccc3o2)c1
- AC50 [2]: 35.5 µM [rising, single point]

Structure (SMILES): O=C(CC1SC(=Nc2ccccc2)N(Cc2ccccn2)C1=O)Nc1ccc(Br)cc1 (configuration not stated)
- AC50 [1]: 20 µM [falling, partial curve, poor fit]

Structure (SMILES): CCC(C(=O)c1ccc2ncccc2c1)c1ccccc1 (configuration not stated)
- AC50 [1]: 11.2 µM [rising, partial curve]
- AC50 [2]: 12.6 µM [rising, partial curve]

Structure (SMILES): COc1ccc(CN=C(NS(=O)(=O)c2cccs2)SC)cc1
- AC50 [2]: 22.4 µM [rising, single point]

Structure (SMILES): Nc1nc(CN2CCN(c3ccccc3)CC2)nc(N2CCCc3ccccc32)n1
- AC50 [2]: 6.31 µM [rising, full curve, poor fit]

Structure (SMILES): Cc1ccccc1OCC(=O)Nc1cc(-c2cccc(Br)c2)nn1-c1ccccc1
- AC50 [1]: 0.0251 µM [rising, full curve, poor fit]
- AC50 [2]: 7.94 µM [rising, partial curve, poor fit]

Structure (SMILES): O=C(NCc1nc2cccnc2n1Cc1ccc(F)cc1)c1ccccc1C(F)(F)F
- AC50 [2]: 0.0355 µM [falling, full curve]

Structure (SMILES): CCCCNC(=O)CCC(=O)Nc1ccc2nc(N3CCN(C)CC3)cc(C)c2c1
- AC50 [2]: 10 µM [falling, partial curve]

Structure (SMILES): O=C(c1cccc(Cl)c1)N1CCN(CCc2ccccn2)CC1
- AC50 [1]: 0.794 µM [falling, partial curve, poor fit]

Structure (SMILES): CCCCNC(=O)c1c(C)oc2ncn(CC(C)C)c(=O)c12
- AC50 [1]: 0.0224 µM [falling, full curve, poor fit]
- AC50 [2]: 0.0447 µM [falling, full curve]

Structure (SMILES): O=C(Nc1cccc(-c2cn3c(n2)SCC3)c1)c1ccc2ccccc2n1
- AC50 [1]: 12.6 µM [falling, partial curve]
- AC50 [2]: 15.8 µM [falling, partial curve]

Structure (SMILES): CCc1ccc2c(CN3CCN(S(=O)(=O)c4cccs4)CC3)cc(=O)oc2c1
- AC50 [2]: 14.1 µM [rising, single point]

Structure (SMILES): Brc1ccc(-c2csc(-c3ccncc3)n2)cc1
- AC50 [2]: 0.0562 µM [rising, full curve]

Structure (SMILES): O=C(CSc1nnc(-c2cc3ccccc3cc2O)n1Cc1ccco1)c1ccc(F)cc1
- AC50 [2]: 35.5 µM [rising, single point]

Structure (SMILES): Cc1nnc(SCC2=C(C(=O)O)N3C(=O)C(NC(=O)Cn4nc(C(F)F)cc4C)C3SC2)s1 (configuration not stated)
- AC50 [2]: 0.501 µM [rising, partial curve, poor fit]

Structure (SMILES): COc1ccc(OC)c(NC(=O)CN(C)S(=O)(=O)c2ccc3[nH]c4c(c3c2)CCCC4)c1
- AC50 [1]: 35.5 µM [falling, single point]

Structure (SMILES): CCN(CC)c1ccc2cc(NC(=O)CCC(=O)O)c(=O)oc2c1
- AC50 [2]: 11.2 µM [falling, partial curve, poor fit]

Structure (SMILES): CC1(C)CC(C(CCN(Cc2ccccc2)C(=O)c2ccco2)c2ccc(F)cc2)CCO1 (configuration not stated)
- AC50 [1]: 15.8 µM [falling, single point]
- AC50 [2]: 14.1 µM [falling, single point]

Structure (SMILES): O=c1c2ccccc2c(C=NCCCN2CCOCC2)c(O)n1Cc1ccc2c(c1)OCO2
- AC50 [2]: 0.224 µM [rising, partial curve, poor fit]

Structure (SMILES): Cc1noc(C)c1COc1ccc2ccc(=O)oc2c1
- AC50 [1]: 20 µM [rising, single point]
- AC50 [2]: 20 µM [rising, partial curve, poor fit]

Structure (SMILES): CCOc1ccc(NC(=O)c2c(NCc3ccc(C)o3)sc3c2CCC(C)C3)cc1 (configuration not stated)
- AC50 [2]: 35.5 µM [rising, single point]

Structure (SMILES): O=C(COC(=O)C1(c2ccc(Cl)cc2)CCCC1)Nc1ncc(C(F)(F)F)cc1Cl
- AC50 [1]: 11.2 µM [rising, partial curve]
- AC50 [2]: 11.2 µM [rising, partial curve]
